16 molecules from US20060257938A1, “Method of screening for drugs that block ligand binding to a lipid binding protein” (priority 2005, published 2006) can be followed below.

Sequences and labels used below:
B1: 17I, 72A (protein, listed as Rattus norvegicus)
chain: AFDGTWKVDRNENYEKIMEKMGINVVKRKLGAHDNLKLTITQEGNKFTVKESSNFRNIDVVFELGVDFAYSAADGTELTGTWTMEGNKLVGKFKRVDNGKELIAVREISGNELIQTYTYEGVEAKRIFKKE
modifications: PEPTIDE (1)...(131) wild-type rat intestinal fatty acid binding protein
B2: 17M, 72A (protein, listed as Rattus norvegicus)
chain: AFDGTWKVDRNENYEKMMEKMGINVVKRKLGAHDNLKLTITQEGNKFTVKESSNFRNIDVVFELGVDFAYSAADGTELTGTWTMEGNKLVGKFKRVDNGKELIAVREISGNELIQTYTYEGVEAKRIFKKE
modifications: PEPTIDE (1)...(131) wild-type rat intestinal fatty acid binding protein
B3: 17L, 72A (protein, listed as Rattus norvegicus)
chain: AFDGTWKVDRNENYEKLMEKMGINVVKRKLGAHDNLKLTITQEGNKFTVKESSNFRNIDVVFELGVDFAYSAADGTELTGTWTMEGNKLVGKFKRVDNGKELIAVREISGNELIQTYTYEGVEAKRIFKKE
modifications: PEPTIDE (1)...(131) wild-type rat intestinal fatty acid binding protein
B4: 17C, 72A (protein, listed as Rattus norvegicus)
chain: AFDGTWKVDRNENYEKCMEKMGINVVKRKLGAHDNLKLTITQEGNKFTVKESSNFRNIDVVFELGVDFAYSAADGTELTGTWTMEGNKLVGKFKRVDNGKELIAVREISGNELIQTYTYEGVEAKRIFKKE
modifications: PEPTIDE (1)...(131) wild-type rat intestinal fatty acid binding protein
B5: 17R, 72A (protein, listed as Rattus norvegicus)
chain: AFDGTWKVDRNENYEKRMEKMGINVVKRKLGAHDNLKLTITQEGNKFTVKESSNFRNIDVVFELGVDFAYSAADGTELTGTWTMEGNKLVGKFKRVDNGKELIAVREISGNELIQTYTYEGVEAKRIFKKE
modifications: PEPTIDE (1)...(131) wild-type rat intestinal fatty acid binding protein
B6: 17Q, 72A (protein, listed as Rattus norvegicus)
chain: AFDGTWKVDRNENYEKQMEKMGINVVKRKLGAHDNLKLTITQEGNKFTVKESSNFRNIDVVFELGVDFAYSAADGTELTGTWTMEGNKLVGKFKRVDNGKELIAVREISGNELIQTYTYEGVEAKRIFKKE
modifications: PEPTIDE (1)...(131) wild-type rat intestinal fatty acid binding protein
B7: 17H, 72A (protein, listed as Rattus norvegicus)
chain: AFDGTWKVDRNENYEKHMEKMGINVVKRKLGAHDNLKLTITQEGNKFTVKESSNFRNIDVVFELGVDFAYSAADGTELTGTWTMEGNKLVGKFKRVDNGKELIAVREISGNELIQTYTYEGVEAKRIFKKE
modifications: PEPTIDE (1)...(131) wild-type rat intestinal fatty acid binding protein
B8: 17F, 72A (protein, listed as Rattus norvegicus)
chain: AFDGTWKVDRNENYEKFMEKMGINVVKRKLGAHDNLKLTITQEGNKFTVKESSNFRNIDVVFELGVDFAYSAADGTELTGTWTMEGNKLVGKFKRVDNGKELIAVREISGNELIQTYTYEGVEAKRIFKKE
modifications: PEPTIDE (1)...(131) wild-type rat intestinal fatty acid binding protein
B9: 17K 72A (protein, listed as Rattus norvegicus)
chain: AFDGTWKVDRNENYEKKMEKMGINVVKRKLGAHDNLKLTITQEGNKFTVKESSNFRNIDVVFELGVDFAYSAADGTELTGTWTMEGNKLVGKFKRVDNGKELIAVREISGNELIQTYTYEGVEAKRIFKKE
modifications: PEPTIDE (1)...(131) wild-type rat intestinal fatty acid binding protein
B10: 17E, 72A (protein, listed as Rattus norvegicus)
chain: AFDGTWKVDRNENYEKEMEKMGINVVKRKLGAHDNLKLTITQEGNKFTVKESSNFRNIDVVFELGVDFAYSAADGTELTGTWTMEGNKLVGKFKRVDNGKELIAVREISGNELIQTYTYEGVEAKRIFKKE
modifications: PEPTIDE (1)...(131) wild-type rat intestinal fatty acid binding protein
B11: 102L, 72A (protein, listed as Rattus norvegicus)
chain: AFDGTWKVDRNENYEKFMEKMGINVVKRKLGAHDNLKLTITQEGNKFTVKESSNFRNIDVVFELGVDFAYSAADGTELTGTWTMEGNKLVGKFKRVDNGKELIAVREISGNELIQTYTYEGVEAKRIFKKE
modifications: PEPTIDE (1)...(131) wild-type rat intestinal fatty acid binding protein
B12: 17S, 72A (protein, listed as Rattus norvegicus)
chain: AFDGTWKVDRNENYEKSMEKMGINVVKRKLGAHDNLKLTITQEGNKFTVKESSNFRNIDVVFELGVDFAYSAADGTELTGTWTMEGNKLVGKFKRVDNGKELIAVREISGNELIQTYTYEGVEAKRIFKKE
modifications: PEPTIDE (1)...(131) wild-type rat intestinal fatty acid binding protein
B13: 17D, 72A (protein, listed as Rattus norvegicus)
chain: AFDGTWKVDRNENYEKDMEKMGINVVKRKLGAHDNLKLTITQEGNKFTVKESSNFRNIDVVFELGVDFAYSAADGTELTGTWTMEGNKLVGKFKRVDNGKELIAVREISGNELIQTYTYEGVEAKRIFKKE
modifications: PEPTIDE (1)...(131) wild-type rat intestinal fatty acid binding protein
B14: 17P, 72A (protein, listed as Rattus norvegicus)
chain: AFDGTWKVDRNENYEKPMEKMGINVVKRKLGAHDNLKLTITQEGNKFTVKESSNFRNIDVVFELGVDFAYSAADGTELTGTWTMEGNKLVGKFKRVDNGKELIAVREISGNELIQTYTYEGVEAKRIFKKE
modifications: PEPTIDE (1)...(131) wild-type rat intestinal fatty acid binding protein
B15: 17G, 72A (protein, listed as Rattus norvegicus)
chain: AFDGTWKVDRNENYEKGMEKMGINVVKRKLGAHDNLKLTITQEGNKFTVKESSNFRNIDVVFELGVDFAYSAADGTELTGTWTMEGNKLVGKFKRVDNGKELIAVREISGNELIQTYTYEGVEAKRIFKKE
modifications: PEPTIDE (1)...(131) wild-type rat intestinal fatty acid binding protein
B16: 17N, 72A (protein, listed as Rattus norvegicus)
chain: AFDGTWKVDRNENYEKNMEKMGINVVKRKLGAHDNLKLTITQEGNKFTVKESSNFRNIDVVFELGVDFAYSAADGTELTGTWTMEGNKLVGKFKRVDNGKELIAVREISGNELIQTYTYEGVEAKRIFKKE
modifications: PEPTIDE (1)...(131) wild-type rat intestinal fatty acid binding protein

The nature of one series: Baseline fluorescence ratio Ro of probe in absence of analyte. The following applies: baseline fluorescence ratio of probe.
For the molecule B1, the Ro was determined as 0.258.

With B2, the Ro is given as 0.296.

Take B3: the Ro is 0.251.

Still in this series, the particulars now being: baseline fluorescence ratio of probe, no fatty acid.
In the case of B4, the AvgOfRo was 0.36.

On to B5, for which the AvgOfRo turned out to be 0.36.

As to B6, the AvgOfRo is 0.25.

For the molecule B7, the AvgOfRo was 0.36.

Consider B1, for which the AvgOfRo came out at 0.26 and the Ro is 0.258.

B2: the AvgOfRo is 0.30.

On to B8, for which the AvgOfRo stood at 0.19.

B9: the AvgOfRo amounted to 0.41.

Turning to B10, the AvgOfRo is on record as 0.27.

B11: the AvgOfRo is on record as 0.22 and the Ro was 0.154.

On to B12, for which the AvgOfRo is 0.35.

With B13, the AvgOfRo is 0.40.

Take B14: the AvgOfRo was 0.45.

In the case of B15, the AvgOfRo is listed as 0.39.

For B16, the AvgOfRo was determined as 0.34.

As to B3, the AvgOfRo worked out at 0.25.
